The source of these data is PubChem BioAssay AID330 (DTP/NCI, 2004).

The test system of this assay is P388 leukemia ip, CD2F1 mice, survival T/C. The experiment in a line: NCI In Vivo Anticancer Drug Screen. Data for tumor model P388 Leukemia (intraperitoneal) in CD2F1 (CDF1) mice. To be noted: T/C endpoint: median survival time, higher T/C = longer survival.
Setting [1] is: dose: 240.0 mg/kg/injection, schedule: Q01DX005 (ip), vehicle: Klucel (hydroxypropylcellulose) (HPC).
Where [2] appears, read: dose: 200.0 mg/kg/injection, schedule: Q01DX001 (ip), vehicle: Klucel (hydroxypropylcellulose) (HPC).
[3] abbreviates: dose: 200.0 mg/kg/injection, schedule: Q01DX005 (ip), vehicle: Klucel (hydroxypropylcellulose) (HPC).
[4] abbreviates: dose: 100.0 mg/kg/injection, schedule: Q01DX005 (ip), vehicle: saline with Tween-80.
[5] abbreviates: dose: 200.0 mg/kg/injection, schedule: Q01DX005 (ip), vehicle: saline with Tween-80.
Setting [6] is: dose: 4.0 mg/kg/injection, schedule: Q01DX009 (ip), vehicle: other.
Setting [7] is: dose: 100.0 mg/kg/injection, schedule: Q04DX003 (ip), vehicle: saline.
[8] abbreviates: dose: 200.0 mg/kg/injection, schedule: Q04DX003 (ip), vehicle: saline.
The mark [9] stands for this setting: dose: 400.0 mg/kg/injection, schedule: Q04DX003 (ip), vehicle: saline.
Where [10] appears, read: dose: 120.0 mg/kg/injection, schedule: Q01DX005 (ip), vehicle: saline with Tween-80.
The mark [11] stands for this setting: dose: 100.0 mg/kg/injection, schedule: Q01DX009 (ip), vehicle: Klucel (hydroxypropylcellulose) (HPC).
Setting [12] is: dose: 100.0 mg/kg/injection, schedule: Q01DX001 (ip), vehicle: Klucel (hydroxypropylcellulose) (HPC).

The list does not hold the whole screen: it gathers tests that were run many times, whatever their T/C, doses with no T/C, and many T/C values between a quarter and a half above the control. Other doses and runs of a compound stand elsewhere. T/C: endpoint of the treated group in % of that of the vehicle group. Some entries give survivors of the animals treated and no T/C: the source holds a T/C of zero for them, seemingly a mark for toxic or unscored doses. Some survivor counts are full or nearly so, which does not show that the dose was tolerated: survival well below the control is almost never listed, so the zero probably covers shortened survival too. Counts of survivors are from the toxicity check (mostly the fifth day) where no day follows; animals may have died later. Schedules are NCI's codes, taken here to give the interval after Q, in days (D) or hours (H), and the number of doses after X. Counts like (3×) count equal records among those shown. Some entries hold several experiments; their values stand side by side, smallest first. Where survival is the endpoint, the PubChem record calls one and a half times the control and up active, and a quarter to a half above the control has no call in these data; cut-offs in other NCI protocols can differ. Some T/C values carry the count of animals alive at the toxicity check (mostly the fifth day); where none is given, no animal had died by that day.

As to `Cc1ccc(S(=O)(=O)C2(NC(=O)c3ccc(Cl)cc3)CC2)cc1`, the survivor count (dose: 60.0 mg/kg/injection, schedule: Q01DX005 (ip), vehicle: Klucel (hydroxypropylcellulose) (HPC)) was 6 of 6 (2×) and the survivor count under setting [1] is 6 of 6.

Consider `COc1cccc2c1C(=O)c1c(O)c3c(c(O)c1C2=O)C[C@@](O)(C(C)=O)C[C@@H]3OC1CC(NC(C)=O)C(O)C(C)O1` (some centres not stated), for which the T/C runs as follows: (dose: 1.32 mg/kg/injection, schedule: Q01DX009 (ip), vehicle: saline) 131 % of control; (dose: 3.0 mg/kg/injection, schedule: Q01DX009 (ip), vehicle: saline) 136 % of control; (dose: 4.5 mg/kg/injection, schedule: Q01DX009 (ip), vehicle: saline) 136 % of control.

Consider `COc1ccc(SCC(=O)c2ccc([N+](=O)[O-])o2)cc1`, for which the survivor count (dose: 200.0 mg/kg/injection, schedule: Q01DX009 (ip), vehicle: suspension in saline) was 5 of 6.

For the molecule `CC1(C)CC(OP(=S)(N2CC2)N2CC2)CC(C)(C)N1O`, the T/C under setting [2] is 142 % of control.

In the case of `COC(=O)C(C)N(CCCl)P1(=O)OCCCN1CCCl` (configuration not stated), the T/C (dose: 120.0 mg/kg/injection, schedule: Q01DX005 (ip), vehicle: saline) was 125 % of control.

In the case of `NCCSSc1ccccc1[N+](=O)[O-]`, the survivor count is 3 of 5 (dose: 100.0 mg/kg/injection, schedule: Q01DX005 (ip), vehicle: Klucel (hydroxypropylcellulose) (HPC)) and 0 of 5 under setting [3].

As to `CC1CN=C(c2ccc(NC(=O)Nc3ccc(C4=NCC(C)N4)cc3)cc2)N1` (configuration not stated), the survivor count by setting is: (dose: 6.25 mg/kg/injection, schedule: Q01DX005 (ip), vehicle: saline with Tween-80) 6 of 6; (dose: 12.5 mg/kg/injection, schedule: Q01DX005 (ip), vehicle: saline with Tween-80) 5 of 6; (dose: 25.0 mg/kg/injection, schedule: Q01DX005 (ip), vehicle: saline with Tween-80) 0 of 6; (dose: 50.0 mg/kg/injection, schedule: Q01DX005 (ip), vehicle: saline with Tween-80) 0 of 6; under setting [4], 0 of 6; under setting [5], 0 of 6.

As for `CCCCCCCCCCCC(=O)NCC(=O)NC1C(C)OC(Nc2ncnc3nc[nH]c23)C(O)C1O` (configuration not stated), the T/C was 128 % of control (dose: 0.25 mg/kg/injection, schedule: Q01DX009 (ip), vehicle: other); 133 % of control (dose: 0.5 mg/kg/injection, schedule: Q01DX009 (ip), vehicle: other); 132 and 142 % of control (dose: 1.0 mg/kg/injection, schedule: Q01DX009 (ip), vehicle: other); 130 % of control under setting [6]. In addition, the survivor count reads like this: under setting [6], 5 of 6; (dose: 8.0 mg/kg/injection, schedule: Q01DX009 (ip), vehicle: other) 4 of 6.

For the molecule `N=C(N)c1ccc2cc(C(=N)N)[nH]c2c1`, the survivor count under setting [7] is recorded as 0 of 6, the survivor count under setting [8] is 0 of 6 and the survivor count under setting [9] is reported as 0 of 6.

Regarding `Nc1ccc2c(Cl)cc(Cl)cc2c1`, the survivor count (dose: 200.0 mg/kg/injection, schedule: Q01DX009 (ip), vehicle: saline with Tween-80) is given as 2 of 6.

In the case of `CCOc1ccc(O)c(CN2CCN(Cc3cc(OCC)ccc3O)CC2)c1`, the survivor count is, setting by setting: under setting [10], 6 of 6; (dose: 240.0 mg/kg/injection, schedule: Q01DX005 (ip), vehicle: saline with Tween-80) 6 of 6.

For `Cc1c2cc[n+](CCN3CCCCC3)cc2c(C)c2c1[nH]c1ccc(O)cc12`, the T/C runs as follows: (dose: 6.25 mg/kg/injection, schedule: Q04DX003 (ip), vehicle: suspension in saline) 140 % of control; (dose: 12.5 mg/kg/injection, schedule: Q04DX003 (ip), vehicle: saline) 145 % of control; (dose: 50.0 mg/kg/injection, schedule: Q04DX003 (ip), vehicle: saline) 143 % of control; under setting [7], 143 % of control. Further, the survivor count under setting [8] was 0 of 6.

As for `C1=CCONC1`, the survivor count under setting [9] is 0 of 6.

Regarding `COS(=O)(=O)N(C)c1nc(N(C)C)nc(N(C)C)n1`, the survivor count (dose: 200.0 mg/kg/injection, schedule: Q01DX005 (ip), vehicle: saline) is listed as 6 of 6.

On to `C=C1C(=O)OC2CC1C(OC(C)=O)CC1(C)OC1CCC1(C)OC1CCC2(C)O` (configuration not stated), for which the T/C is 126 % of control (dose: 50.0 mg/kg/injection, schedule: Q01DX009 (ip), vehicle: Klucel (hydroxypropylcellulose) (HPC)) and 128 % of control [5 of 6 alive] under setting [11].

In the case of `CCCCCCC(O)Cc1cc(-c2ccccc2)nc(=O)[nH]1` (configuration not stated), the survivor count (dose: 30.0 mg/kg/injection, schedule: Q01DX005 (ip), vehicle: saline with Tween-80) was 6 of 6; the survivor count (dose: 60.0 mg/kg/injection, schedule: Q01DX005 (ip), vehicle: saline with Tween-80) is on record as 6 of 6; the survivor count under setting [10] was 6 of 6.

Take `Clc1cncc(N2CCNCC2)n1`: the survivor count is, setting by setting: under setting [11], 0 of 6; (dose: 200.0 mg/kg/injection, schedule: Q01DX009 (ip), vehicle: Klucel (hydroxypropylcellulose) (HPC)) 0 of 6.

Regarding `COC(=O)C1(OC(C)=O)C(=O)NC2=C1C(=O)c1ccccc1C2=O` (configuration not stated), the survivor count reads like this: under setting [4], 3 of 6; under setting [5], 0 of 6.

Consider `COc1ccccc1NC(=O)C1=C(C)NC(C)=C(C(=O)Nc2ccccc2OC)C1c1cccc([N+](=O)[O-])c1`, for which, under setting [1], the survivor count was 6 of 6.

`C[N+](C)(CCCCCCOc1c(Br)cc(Br)cc1Br)Cc1ccc(Br)o1`: the survivor count reads like this: (dose: 6.25 mg/kg/injection, schedule: Q01DX009 (ip), vehicle: Klucel (hydroxypropylcellulose) (HPC)) 3 of 6; (dose: 12.5 mg/kg/injection, schedule: Q01DX009 (ip), vehicle: Klucel (hydroxypropylcellulose) (HPC)) 2 of 6; (dose: 25.0 mg/kg/injection, schedule: Q01DX009 (ip), vehicle: Klucel (hydroxypropylcellulose) (HPC)) 0 of 6.

Consider `CC(NNC(=S)N1CCCCCC1)c1ccc2ccccc2n1` (configuration not stated), for which the T/C under setting [3] is 130 % of control. The survivor count (dose: 400.0 mg/kg/injection, schedule: Q01DX005 (ip), vehicle: Klucel (hydroxypropylcellulose) (HPC)) is 1 of 6 and 5 of 6.

In the case of `COc1cc2c(cc1O)C(CSC)Cc1cc3c(cc1N(C)CC2)OCO3` (configuration not stated), the survivor count (dose: 50.0 mg/kg/injection, schedule: Q01DX009 (ip), vehicle: saline with Tween-80) is reported as 6 of 6.

Turning to `COc1cccc2c1C(=O)c1c(O)c3c(c(O)c1C2=O)C[C@@](O)(/C(CO)=N/NC(=O)c1ccc(Cl)c(Cl)c1)C[C@@H]3OC1CC(NC(=S)Nc2ccc(F)cc2)C(O)C(C)O1` (some centres not stated), the survivor count (dose: 1.56 mg/kg/injection, schedule: Q01DX009 (ip), vehicle: water) is recorded as 6 of 6; the survivor count (dose: 3.13 mg/kg/injection, schedule: Q01DX009 (ip), vehicle: water) was 6 of 6; the survivor count (dose: 6.25 mg/kg/injection, schedule: Q01DX009 (ip), vehicle: water) is on record as 6 of 6. The T/C (dose: 1.6 mg/kg/injection, schedule: Q01DX009 (ip), vehicle: water) was 127 % of control.

`CCC(C)C(=O)OC1C(=O)OC2CC3C(C)=CC(=O)C(O)C3(C)C3C4(O)OCC23C1C(C)C4O` (configuration not stated): the T/C by setting is: (dose: 0.25 mg/kg/injection, schedule: Q01DX009 (ip), vehicle: saline) 133 % of control; (dose: 0.5 mg/kg/injection, schedule: Q01DX009 (ip), vehicle: saline) 132 % of control; (dose: 1.0 mg/kg/injection, schedule: Q01DX009 (ip), vehicle: saline) 133 % of control.

For the molecule `[CH3][Sn]1([CH3])[O]C(=O)c2ccccc2C(=O)[O]1`, the T/C under setting [12] was 129 % of control. Further, the survivor count by setting is: under setting [12], 2 of 6; under setting [2], 0 of 6; (dose: 400.0 mg/kg/injection, schedule: Q01DX001 (ip), vehicle: Klucel (hydroxypropylcellulose) (HPC)) 0 of 6.
